PubChem BioAssay AID1508597 | Cure First | 2020
This is a random part of the about 2,100 reagents, under one of the conditions tested. 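Calls flag viability under 80% in either arm, not effects specific to rucaparib; the reference for percent is not stated.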 A number with no mark means an inactive call. Some reagents were tested in more than one well and are listed for each. No sequences are given here. The record does not give: the 100% reference.

- Screen: 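Genes whose silencing sensitises or protects ovarian cancer cells against rucaparib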 (primary screen)
- System: human ovarian carcinoma lines grown from tumours: OCI-P5x (papillary serous) and OCI-C5x (clear cell)
- Reagent: siRNA pool against human genes, 1.25 pmol siRNA per well
- Timing: 72 h or 96 h, depending on the cell culture
- Challenge: rucaparib 20 µM (about IC30) or vehicle, present until read-out
- Rucaparib or vehicle: Vehicle
- Cell line: OCI-C5x (clear cell)
- Measured: 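ATP luminescence measured at 72 or 96 h according to the culture, then normalised and expressed as percent viability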
- Reading the numbers: viability, normalised: higher = more viable cells remaining
- Hit rule: 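a well counts as a hit if its normalised viability is under 80 percent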
- Meaning of the calls: active = viability under 80%; inactive = viability 80% or more

gene,PubChem SID,technical replicate,"viability, normalised (%)"
MERTK (GeneID 10461),SID405528525,1,48.5 (active)
MERTK (GeneID 10461),SID405528525,2,44.1 (active)
MERTK (GeneID 10461),SID405528525,3,53.9 (active)
EFNA5 (GeneID 1946),SID405526406,1,62.3 (active)
EFNA5 (GeneID 1946),SID405526406,2,64.9 (active)
EFNA5 (GeneID 1946),SID405526406,3,40.1 (active)
CDK16 (GeneID 5127),SID405528597,1,54.1 (active)
CDK16 (GeneID 5127),SID405528597,2,75.3 (active)
CDK16 (GeneID 5127),SID405528597,3,67.9 (active)
WEE1 (GeneID 7465),SID405526432,1,16.5 (active)
WEE1 (GeneID 7465),SID405526432,1,19.8 (active)
WEE1 (GeneID 7465),SID405526432,2,17.4 (active)
WEE1 (GeneID 7465),SID405526432,2,34.2 (active)
WEE1 (GeneID 7465),SID405526432,3,26.6 (active)
WEE1 (GeneID 7465),SID405526432,3,15.5 (active)

Entries listed so far whose target name begins with W or w:
gene,PubChem SID,technical replicate,"viability, normalised (%)"
WEE1 (GeneID 7465),SID405526432,1,16.5 (active)
WEE1 (GeneID 7465),SID405526432,1,19.8 (active)
WEE1 (GeneID 7465),SID405526432,2,17.4 (active)
WEE1 (GeneID 7465),SID405526432,2,34.2 (active)
WEE1 (GeneID 7465),SID405526432,3,26.6 (active)
WEE1 (GeneID 7465),SID405526432,3,15.5 (active)

Next entries follow:
gene,PubChem SID,technical replicate,"viability, normalised (%)"
AK9 (GeneID 221264),SID405528584,1,68.7 (active)
AK9 (GeneID 221264),SID405528584,2,48.6 (active)
AK9 (GeneID 221264),SID405528584,3,54.6 (active)
RNF168 (GeneID 165918),SID405527251,1,39.4 (active)
RNF168 (GeneID 165918),SID405527251,1,38.1 (active)
RNF168 (GeneID 165918),SID405527251,2,42.3 (active)
RNF168 (GeneID 165918),SID405527251,2,42.2 (active)
RNF168 (GeneID 165918),SID405527251,3,48.6 (active)
RNF168 (GeneID 165918),SID405527251,3,37.5 (active)
